According to patent publication US20110206781A1, “METHOD TO MODULATE HEMATOPOIETIC STEM CELL GROWTH” (priority 2008, published 2011):
At least one compound was matched to its structure with a doubt left. No end group written: not given here.

System: runx1/cmyb+ HSCs in the zebrafish AGM
Experiment: runx1/cmyb in situ hybridization for HSC formation in zebrafish embryos at 36 hpf
Type: in vivo
Text: In Situ Hybridizataion: Paraformaldehyde-fixed embryos were processed for in situ hybridization according to standard zebrafish protocols. Such protocols are available on-line through the The Zebrafish Model Organism Database. The following RNA probes were used: runx1, cmyb, flk1, ephrinB2, flt4, globin, mpo, mhc, and foxa3. Changes in expression compared to WT controls are reported as the number altered/number scored per genotype/treatment (North et al., 2007); a minimum of three independent experiments was conducted per analysis.
Chemical Exposure: Zebrafish embryos were exposed to chemicals at the doses indicated; dimethyl sulfoxide (DMSO) carrier content was 0.1%. For evaluation of HSC development, exposure ranged from early somitogenesis (5+ somites) until 36 hpf, unless otherwise noted.
Morpholino injection: Morpholino antisense oligonucleotides (MO; GENETOOLS, LLC, Philomath, Oreg.) designed against the ATG and exonl splice sites of nos1 (5′-[…] [SEQ. ID NO:1]; 5′-[…] [SEQ ID NO:2), nos2 (5′-[…] [SEQ ID NO:3]; 5′-[…] [SEQ ID NO:4]), and mismatched controls were injected into one-cell-stage embryos.

**Q.** What does the source list for RPPGFSPFR [bradykinin]?
**A.** effect on the sih hematopoietic defect (runx1/cmyb), in words (sih−/− embryos): rescued the sih hematopoietic defect; effect on HSCs (runx1/cmyb), in words (wild-type embryos, bradykinin 10 μM): increased HSCs
